In patent US20260284208A1, “SYSTEM” (Oxford University Innovation Limited, priority 2023, published 2026):
This continues a long series; more values of the same kind are listed elsewhere.

System: library of 8,380 IKZF3 degrons (ZF-eGFP/mCherry reporter) in Jurkat cells
Assay: Pooled library screen (FACS, NGS, limma voom LogFC of positive vs negative read counts)
Assay type: cell-based, human
Description: A library of 8,380 IKZF3 degrons was cloned into pLVX-Sprout to create the eGFP/mCherry protein degradation reporter plasmid pool. A lentivirus pool was then generated using the Lenti-X lentiviral vector production method.
Jurkat cells were transduced at a multiplicity of infection of <0.3 with the lentivirus vector library in order to maximise the number of cells with a single integration. Transductions were carried out in 6 well TC-treated cell culture dishes (Falcon) with 3×10^6 cells per well. Cells were incubated for 2 days at 37° C. and 5% CO2 before the supernatant was removed and replaced with fresh media. 6 days post-transduction, mCherry+ cells were isolated via FACS using the FACS Aria Fusion (BD) in a buffer containing PBS (Gibco), 2 mM EDTA (Gibco), 25 mM HEPES (Sigma) and 1% BSA (Sigma). 8 days later, cells were treated with DMSO or a thalidomide analog for 18 hours at 37° C. and 5% CO2. mCherry+GFPlow and NOT(mCherry+GFPlow) cells were sorted by FACS using the FACS Aria Fusion (BD). DMSO treated cells were used to set the mCherry+GFPlow gate and dead cells were excluded from sorting by staining cells with 1 μg/mL DAPI (ThermoFisher). gDNA was isolated using the Maxwell RSC 48 (Promega). gDNA from cells that were unsorted and untreated were also isolated to determine the library representation on the day of compound treatment. Throughout the screen >600× coverage of the library was maintained. 3 biological replicates were carried out with a new transduction taking place each time.
A two-step PCR was used where the first PCR (PCR1) amplified the integrated degron sequence from gDNA and the second PCR (PCR2) added Illumina adaptors and barcodes to permit multiplexing. See Supp F for PCR1 and PCR2 primers. Q5 Hot Start High-Fidelity 2× Master Mix (New England Biolabs) was used for both PCRs. Sufficient gDNA was amplified in PCR1 in order to maintain >600× coverage and amplicons were purified using solid phase reversible immobilization (SPRI) beads (Beckman Coulter). Purified PCR1 products were analysed on the Tapestation 4200 (Agilent) to confirm purity prior to proceeding to PCR2. Sufficient PCR1 product was amplified in PCR2 in order to maintain >600× coverage and amplicons were run on a 2% agarose TAE gel. Target bands were excised and purified using the NucleoSpin Gel and PCR Clean-up Kit (Machery Nagel). Amplicons were analysed on the Tapestation 4200 and quantified using Qubit dsDNA HS kit (ThermoFisher). PCR products were pooled and sequenced as paired-reads on the NovaSeq (Illumina) using a SP2 200 cycles kit (Illumina).
Count distributions, percentage of read mapping, library coverage and replicate correlation per sample were assessed for QC purposes.
To carry out the library screen, we used the same plasmid construct as in our earlier flow cytometry assays, but pooling all 8,380 mutants together into one Jurkat population, ensuring a copy number of one plasmid per cell (FIG. 4B). […] These GFP-negative cells were then separated from the remaining GFP-positive population using fluorescence activated cell sorting (FACS). These two populations were then sequenced and the relative abundance of every mutant in both populations compared to provide a log FC value for each mutant sequence. This value indicated how frequently a sequence is observed in the GFP-negative population relative to the GFP-positive population, and therefore how effective a degron it is for that particular IMID compound.

O=C1CCC(N2C(=O)c3ccc(N4CCOCC4)cc3C2=O)C(=O)N1 (stereo not drawn) [B03]
B03_logFC (Degron-ID 1190, SEQ ID NO 4245, 46F_47F_49P_50V_52G_53A_54M_55F_67L_): 2.303 | B03_logFC (Degron-ID 1192, SEQ ID NO 3903, 46F_47F_49P_50V_52G_53A_54P_55F_67L): 2.843 | B03_logFC (Degron-ID 1194, SEQ ID NO 3673, 46F_47F_49P_50V_52G_53A_54R_55F_67L_): 3.29 | B03_logFC (Degron-ID 1195, SEQ ID NO 3713, 46F_47F_49P_50V_52G_53A_54S_55F_67L_): 3.181 | B03_logFC (Degron-ID 1261, SEQ ID NO 3847, 46F_47G_49E_50I_52G_53A_54C_55F_67L): 2.928 | B03_logFC (Degron-ID 1274, SEQ ID NO 4270, 46F_47G_49E_50I_52G_53A_54R_55F_67L_): 2.263 | B03_logFC (Degron-ID 1275, SEQ ID NO 4349, 46F_47G_49E_50I_52G_53A_54S_55F_67L_): 2.123 | B03_logFC (Degron-ID 1300, SEQ ID NO 4285, 46F_47G_49E_50V_52G_53A_54A_55F_67L_): 2.243 | B03_logFC (Degron-ID 1310, SEQ ID NO 4367, 46F_47G_49E_50V_52G_53A_54M_55F_67L_): 2.092 | B03_logFC (Degron-ID 1315, SEQ ID NO 4263, 46F_47G_49E_50V_52G_53A_54S_55F_67L_): 2.274 | B03_logFC (Degron-ID 1321, SEQ ID NO 4371, 46F_47G_49N_50I_52G_53A_54C_55F_67L_): 2.085 | B03_logFC (Degron-ID 1381, SEQ ID NO 3917, 46F_47G_49P_50I_52G_53A_54C_55F_67L): 2.82 | B03_logFC (Degron-ID 1390, SEQ ID NO 4307, 46F_47G_49P_50I_52G_53A_54M_55F_67L_): 2.191 | B03_logFC (Degron-ID 1394, SEQ ID NO 4259, 46F_47G_49P_50I_52G_53A_54R_55F_67L_): 2.278 | B03_logFC (Degron-ID 1395, SEQ ID NO 4255, 46F_47G_49P_50I_52G_53A_54S_55F_67L_): 2.283 | B03_logFC (Degron-ID 1421, SEQ ID NO 3721, 46F_47G_49P_50V_52G_53A_54C_55F_67L_): 3.165 | B03_logFC (Degron-ID 1427, SEQ ID NO 4350, 46F_47G_49P_50V_52G_53A_54I_55F_67L_): 2.123 | B03_logFC (Degron-ID 1430, SEQ ID NO 4374, 46F_47G_49P_50V_52G_53A_54M_55F_67L_): 2.082 | B03_logFC (Degron-ID 1434, SEQ ID NO 4359, 46F_47G_49P_50V_52G_53A_54R_55F_67L_): 2.105 | B03_logFC (Degron-ID 1452, SEQ ID NO 3898, 46F_47H_49D_50I_52G_53A_54P_55F_67L): 2.854 | B03_logFC (Degron-ID 1500, SEQ ID NO 3802, 46F_47H_49E_50I_52G_53A_54A_55F_67L_): 3.003 | B03_logFC (Degron-ID 1540, SEQ ID NO 3879, 46F_47H_49E_50V_52G_53A_54A_55F_67L): 2.886 | B03_logFC (Degron-ID 1541, SEQ ID NO 4274, 46F_47H_49E_50V_52G_53A_54C_55F_67L_): 2.254 | B03_logFC (Degron-ID 1552, SEQ ID NO 3720, 46F_47H_49E_50V_52G_53A_54P_55F_67L_): 3.169 | B03_logFC (Degron-ID 1560, SEQ ID NO 4250, 46F_47H_49N_50I_52G_53A_54A_55F_67L_): 2.296 | B03_logFC (Degron-ID 1572, SEQ ID NO 3801, 46F_47H_49N_50I_52G_53A_54P_55F_67L_): 3.008 | B03_logFC (Degron-ID 1575, SEQ ID NO 4425, 46F_47H_49N_50I_52G_53A_54S_55F_67L_): 2.015 | B03_logFC (Degron-ID 1620, SEQ ID NO 3938, 46F_47H_49P_50I_52G_53A_54A_55F_67L): 2.78 | B03_logFC (Degron-ID 1628, SEQ ID NO 4366, 46F_47H_49P_50I_52G_53A_54K_55F_67L_): 2.092 | B03_logFC (Degron-ID 1633, SEQ ID NO 3926, 46F_47H_49P_50I_52G_53A_54Q_55F_67L): 2.797 | B03_logFC (Degron-ID 1672, SEQ ID NO 3892, 46F_47H_49P_50V_52G_53A_54P_55F_67L): 2.863 | B03_logFC (Degron-ID 1674, SEQ ID NO 4297, 46F_47H_49P_50V_52G_53A_54R_55F_67L_): 2.228 | B03_logFC (Degron-ID 1680, SEQ ID NO 4254, 46F_47I_49D_50I_52G_53A_54A_55F_67L_): 2.29 | B03_logFC (Degron-ID 1685, SEQ ID NO 4405, 46F_47I_49D_50I_52G_53A_54G_55F_67L_): 2.033 | B03_logFC (Degron-ID 1693, SEQ ID NO 4312, 46F_47I_49D_50I_52G_53A_54Q_55F_67L_): 2.187 | B03_logFC (Degron-ID 1732, SEQ ID NO 3768, 46F_47I_49D_50V_52G_53A_54P_55F_67L_): 3.083 | B03_logFC (Degron-ID 1740, SEQ ID NO 3835, 46F_47I_49E_50I_52G_53A_54A_55F_67L_): 2.951 | B03_logFC (Degron-ID 1741, SEQ ID NO 4423, 46F_47I_49E_50I_52G_53A_54C_55F_67L_): 2.016 | B03_logFC (Degron-ID 1748, SEQ ID NO 4378, 46F_47I_49E_50I_52G_53A_54K_55F_67L_): 2.073 | B03_logFC (Degron-ID 1753, SEQ ID NO 3893, 46F_47I_49E_50I_52G_53A_54Q_55F_67L): 2.862 | B03_logFC (Degron-ID 1780, SEQ ID NO 3804, 46F_47I_49E_50V_52G_53A_54A_55F_67L_): 3.001 | B03_logFC (Degron-ID 1781, SEQ ID NO 4361, 46F_47I_49E_50V_52G_53A_54C_55F_67L_): 2.101
